{"source": "patent US20060034823A1", "about": "“Method of production and use of crotoxin as an analgesic” (priority 2004, published 2006)", "key": {"[1]": {"test_system": "pain response in mice induced by Hot Plate", "type": "in vivo, Kunming mice", "conditions": "atropine 0.5 mg/kg (im); crotoxin 44.3 μg/kg"}, "[2]": {"test_system": "acetic acid writhing response in mice", "type": "in vivo, Kunming mice"}}, "data": [{"compound": "CN1[C@@H]2CC[C@H]1C[C@@H](OC(=O)C(CO)c1ccccc1)C2", "note": "(stereo partly shown) [Atropine, atropine]", "values": [{"measurement": "antagonism of the analgesic effects of crotoxin", "setting": "[1]", "value": "failed to antagonize"}, {"measurement": "effect of atropine alone on the pain threshold", "setting": "[2]; atropine 10 mg/kg (ip)", "value": "no significant effect"}, {"measurement": "antagonism of the analgesic effects of crotoxin", "setting": "[2]; atropine 10 mg/kg (ip), crotoxin 44.3 μg/kg", "value": "failed to antagonize"}, {"measurement": "The number of writhings", "setting": "[2]; crotoxin 44.3 μg·kg−1, atropine 10 mg·kg−1 or NS (i.p.) 1.5 hours after crotoxin, determined 1.5 hours after atropine", "value": "18.60 ± 9.61", "unit": "times/10 min"}]}]}
